Values of other authors in US20100151018A1, “SUSTAINED-RELEASE LEVETIRACETAM COMPOSITION AND PREPARATION PROCESS” (RD- Pharmagal, priority 2007, published 2010).
The name of at least one read-out is uncertain.

Conditions: oral administration of immediate-release tablets

## CC[C@@H](C(N)=O)N1CCCC1=O [levetiracetam, S-enantiomer of a-ethyl-2-oxo-1-pyrrolidine acetamide]
  time at which maximum plasma concentrations (Cmax) are reached: 1.3 h
